# Measurements as given in the odorant receptor screen of Mainland et al. (2015).
# “And” between values parts separate entries of the source, which are not always exact repeats. Equal entries are not always repeated. This is one part of the list. Single wells; the ratio to wells without odorant was worked out here, and repeats agree poorly.
# Assays:
# Assay in all cases: odorant receptor activation (CRE luciferase / Renilla) (fold of no-odor wells); higher = more activation
# Conditions in all cases: 100 µM
# OR10R2 clone 1400 = tested on: OR10R2 clone 1400
# OR10T2 clone 1032 = tested on: OR10T2 clone 1032
# [1] = tested on: OR10V1 Q101L/V117A/Q123W clone 1520
# OR10W1 R263Q clone 1176 = tested on: OR10W1 R263Q clone 1176
# OR10X1 clone 1368 = tested on: OR10X1 clone 1368
# OR10X1 clone 1516 = tested on: OR10X1 clone 1516
# OR10Z1 clone 1026 = tested on: OR10Z1 clone 1026
# OR11A1 clone 1062 = tested on: OR11A1 clone 1062
# OR11H1 clone 1558 = tested on: OR11H1 clone 1558
# OR11H12 clone 1302 = tested on: OR11H12 clone 1302
SMILES,odorant receptor activation (OR10R2 clone 1400),odorant receptor activation (OR10T2 clone 1032),odorant receptor activation [1],odorant receptor activation (OR10W1 R263Q clone 1176),odorant receptor activation (OR10X1 clone 1368),odorant receptor activation (OR10X1 clone 1516),odorant receptor activation (OR10Z1 clone 1026),odorant receptor activation (OR11A1 clone 1062),odorant receptor activation (OR11H1 clone 1558),odorant receptor activation (OR11H12 clone 1302)
CCOc1cc(C=O)ccc1O [ethyl vanillin],0.891 and 1.23,0.779 and 1.16,1.03 and 2.08 and 1.3,1.54 and 1.2,1.2,1.24 and 2.84 and 1.62,0.816 and 1.21,1.11 and 0.961,0.736,1.61 and 1.21
CCCCOC(C)=O [butyl acetate],0.132,0.944,0.703,0.927,0.206,1.18,1.25,1.02,0.768,0.711
CS [methanethiol],1.08,0.988,0.977,0.875,0.96,0.858,0.963,0.98,0.765,1.04
CCC(C)=O [2-butanone],0.613,3.27,1.22,1.02,0.83,1.21,3.9,2.54,1.15,1.13
